Measured values taken from paper PMC12867144.
These are yes or no findings as the source states them, for the method shown. In cells and extracts the contact can be indirect. Some binding calls cover weakened binding; strength is not graded here.

Amino acid sequences for entries named in this document (tags omitted). A change or cut given only in a name is not applied to a line headed by its entry. Chains listed by the source or under a name are the forms on record and can include a tag or linker.
VCL head (amino acids 1-258) M209L, FLAG-tagged (P18206-2, form named): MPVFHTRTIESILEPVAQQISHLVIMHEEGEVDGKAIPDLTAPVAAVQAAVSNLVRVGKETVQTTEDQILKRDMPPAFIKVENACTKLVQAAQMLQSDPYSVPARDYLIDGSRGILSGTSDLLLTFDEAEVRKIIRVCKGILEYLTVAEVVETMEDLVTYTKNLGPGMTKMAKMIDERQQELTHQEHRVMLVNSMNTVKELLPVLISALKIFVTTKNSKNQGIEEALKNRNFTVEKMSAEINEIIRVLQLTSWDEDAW
VCL tail (amino acids 879-1,066), c-MYC-tagged (P18206-2, form named): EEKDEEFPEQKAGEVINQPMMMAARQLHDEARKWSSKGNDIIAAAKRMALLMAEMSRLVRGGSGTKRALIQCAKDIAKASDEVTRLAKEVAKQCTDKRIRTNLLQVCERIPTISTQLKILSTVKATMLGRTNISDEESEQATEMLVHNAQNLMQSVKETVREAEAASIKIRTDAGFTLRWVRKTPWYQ

Biological target: VCL head (amino acids 1-258) M209L, FLAG-tagged (human) (UniProt P18206)
Test: co-IP; FLAG-tagged VCL head (WT or M209L) and c-MYC-tagged VCL tail coexpressed in HeLa cells; lysates incubated with anti-GFP or anti-FLAG M2 magnetic beads overnight at 4°C, washed four times with lysis buffer, Western blot

binding: binds
Substance: VCL tail (amino acids 879-1,066), c-MYC-tagged (from UniProt P18206-2 879-1066) (domain or fragment)
